Measured values from US20070244110A1, “Treatment of prostate cancer, melanoma or hepatic cancer” (ZENYAKU KOGYO KABUSHIKI KAISHA, priority 2006, published 2007).
At least one structure is not confirmed: it was looked up by name or label, or the drawing left a doubt.

Columns and labels:
[1] = system: PC-3 prostate cancer cells; assay: In vivo anti-tumor experiment, PC-3 human tumor xenograft; design: species or system BALB/c nude mice; settings: 200 mg/kg orally once daily, 6 days a week for two weeks; day 14
Procedure: (§1) Human tumor xenografts were generated with PC-3 prostate cancer cells, and WiDr colon cancer cells, and were grown as subcutaneous tumors in mutant BALB/c nude mice. Each nude mouse was subcutaneously inoculated with a tumor fragment of 2 mm by 2 mm by 2 mm. When tumors reached a volume of 100-300 mm^3, animals were divided randomly into test groups of five mice (day 0). The samples were orally administered at a dosage of 100, 200 or 400 mg/kg once daily, 6 days a week for two weeks. The length (L) and width (W) of the subcutaneous tumor mass were measured by calipers in live mice, and the tumor volume (TV) was calculated as: TV=(L×W^2)/2. The tumor volume at day n was expressed as relative tumor volume (RTV), according to the formula RTV=TVn/TV0, where TVn is the tumor volume at day n, and TV0 is the tumor volume at day 0. T/C% on day 14 was determined by calculating RTV as: T/C%=100×(mean RTV of treated group)/(mean RTV of control group). The specimens in which T/C (%) was 50% or less and having a significant difference at P value 1% on one side in a Mann-Whitney U test were evaluated as effective (+).

WiDr colon cancer cells = assay: In vivo anti-tumor experiment, WiDr human tumor xenograft (reference); design: species or system BALB/c nude mice; settings: 400 mg/kg orally once daily, 6 days a week for two weeks; day 14
Procedure: as §1

Compound | Evaluation effective (+), Prostate Cancer [1] | Evaluation effective (+), Colon Cancer (reference) (WiDr colon cancer cells)
CC(=O)Oc1cccc2c1nc(C(F)F)n2-c1nc(N2CCOCC2)cc(N2C[C@@H](C)O[C@@H](C)C2)n1 [Compound 13, 2-(2-difluoromethyl-4-acetoxybenzimidazol-1-yl)-4-(cis-2,6-dimethylmoropholino)-6-morpholinopyrimidine] | − | 
CC1(C)COCCN1c1cc(N2CCOCC2)nc(-n2c(C(F)F)nc3c(O)cccc32)n1 [Compound 10, 2-(2-difluoromethyl-4-hydroxybenzimidazol-1-yl)-4-(3,3-dimethylmoropholino)-6-morpholinopyrimidine] |  | −
